One assay concerns the target T1, GST-CBL-C (human) (UniProt Q9ULV8).
T1 sequence: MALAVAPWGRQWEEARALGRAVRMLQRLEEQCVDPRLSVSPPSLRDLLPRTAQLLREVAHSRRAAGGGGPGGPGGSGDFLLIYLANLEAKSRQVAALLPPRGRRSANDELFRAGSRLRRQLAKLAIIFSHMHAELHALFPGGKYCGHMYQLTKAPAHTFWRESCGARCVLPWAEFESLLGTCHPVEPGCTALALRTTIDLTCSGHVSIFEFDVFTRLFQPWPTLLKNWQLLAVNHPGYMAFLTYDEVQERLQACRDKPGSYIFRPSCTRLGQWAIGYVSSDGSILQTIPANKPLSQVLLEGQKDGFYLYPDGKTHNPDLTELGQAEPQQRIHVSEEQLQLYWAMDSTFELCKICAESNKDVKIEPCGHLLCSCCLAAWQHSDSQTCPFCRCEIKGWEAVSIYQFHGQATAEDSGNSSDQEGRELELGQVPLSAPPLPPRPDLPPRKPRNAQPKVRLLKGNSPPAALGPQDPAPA
Briefly: pull-down.

Protein sequences, listed by entry. Tags and fused reporters are not part of them. Lines headed by an entry give the natural chain unless they say otherwise; changes in a name come on top.
UniProt B7UM99, whole entry, looked up, stated change not applied: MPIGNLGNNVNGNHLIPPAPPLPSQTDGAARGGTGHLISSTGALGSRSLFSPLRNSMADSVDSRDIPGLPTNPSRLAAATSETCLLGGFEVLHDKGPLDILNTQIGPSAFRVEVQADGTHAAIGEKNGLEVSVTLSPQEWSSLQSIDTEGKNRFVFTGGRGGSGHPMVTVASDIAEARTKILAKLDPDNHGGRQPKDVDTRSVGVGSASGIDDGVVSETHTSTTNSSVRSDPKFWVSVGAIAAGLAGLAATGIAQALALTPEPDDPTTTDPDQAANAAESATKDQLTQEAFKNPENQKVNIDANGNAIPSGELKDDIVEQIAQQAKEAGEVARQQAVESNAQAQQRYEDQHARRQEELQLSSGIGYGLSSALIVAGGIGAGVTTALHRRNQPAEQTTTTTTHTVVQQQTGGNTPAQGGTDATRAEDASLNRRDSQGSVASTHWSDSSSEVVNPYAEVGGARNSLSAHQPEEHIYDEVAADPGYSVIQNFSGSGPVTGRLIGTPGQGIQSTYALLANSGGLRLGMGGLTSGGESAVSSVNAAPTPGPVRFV

Assay [1] deals with GST-tagged Tir Y454F (Escherichia coli O127:H6 (strain E2348/69 / EPEC)) (UniProt B7UM99). Briefly: pull-down.

No constants are given. Whether binding was seen depends on the method and setting. Binding seen in cells or lysates may run through a third protein. Sequences can lack the tags named with a protein.

With “6Myc-tagged Tir Y454F (from UniProt B7UM99 1-550)”, in the assay with GST-CBL-C (human), the binding result is reported as “no binding”.

B1: FLAG-tagged CBL-C WT (enzyme, UniProt Q9ULV8 1-474)
chain: T1 sequence
B1: the binding entry in assay [1] is given as “no binding”.

These data come from doi:10.1101/2021.03.08.434331.
